# According to PubChem BioAssay AID2685 (National Center for Advancing Translational Sciences (NCATS), 2010):
# The list shows a part of the results. The main result of the screen is listed elsewhere. These columns were measured beside it and carry no call. Most of these compounds were active or inconclusive in the main read-out, so they are no random draw. The note in brackets gives the kind of curve behind each potency; many fits are weak.
# Test: qHTS Assay for Lipid Storage Modulators in Drosophila S3 Cells;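 for cell number change: cells counted by Cell Tracker Red CMTPX staining in the red channel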
# Conditions: BODIPY lipid droplet fluorescence, 18-24 h; for cell number change: measured here: cell count max response, cells fed with added oleic acid
# Procedure, shortened: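 Laser-scanning cytometry quantifies lipid droplet accumulation (500–530 nm total intensity; droplet/cell object ratio) in oleic acid-fed (400 uM added) Drosophila S3 cells treated with a concentration series. 20 uM Triacsin C defined 100% inhibition.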
# [1] = measured here: cell number channel AC50, cells fed with added oleic acid
# [2] = measured here: lipid fluorescence (Fed channel) AC50, cells fed with added oleic acid
Compound,cell number change [%],AC50 [1],AC50 [2]
CN(C)S(=O)(=O)c1ccc2c(c1)nc(CCC(=O)Nc1ccc3c(c1)OCO3)n2C,-9.78,"0.82 µM [falling, full curve, poor fit]","0.164 µM [rising, partial curve, poor fit]"
COc1ccccc1CCNC(=O)c1cc(COc2cccc(C(F)(F)F)c2)on1,-6.84,,
CC(C)CN(C(=O)CSc1nncn1C)C1CCS(=O)(=O)C1 (centres undefined),-7.37,,"32.6 µM [rising, partial curve, poor fit]"
COc1ccc(Nc2nc(N3CCN(C)CC3)nc3ccccc23)c(OC)c1,21.3,,
NC(N)=NS(=O)(=O)c1ccc(NC(=S)NC(=O)/C=C/c2ccco2)cc1,-17.3,,"0.146 µM [falling, full curve, poor fit]"
CCOc1cc(S(=O)(=O)NCc2ccncc2)ccc1Cl,-38.1,"3.16 µM [falling, full curve]","2.24 µM [falling, partial curve, poor fit]"
COc1ccc(S(=O)(=O)N2CCC(C(=O)N3CCN(C)CC3)CC2)cc1Cl,,,"0.259 µM [rising, partial curve, poor fit]"
CN(CCc1cnn(C)c1)Cc1nc(Cc2ccccc2)no1,13.8,,"25.9 µM [rising, single point]"
CCC(C)NC(=O)c1ccccc1NC(=O)/C(=C/c1ccc(OC)cc1)c1ccccc1 (centres undefined),-2.55,,"18.4 µM [falling, single point]"
CCOC(=O)Cn1c(=O)oc2cc(S(=O)(=O)NCc3cccs3)ccc21,-5.51,,"29.1 µM [falling, single point]"
COc1ccc(NC(=O)CSc2nc3ccc(Nc4nc(N5CCOCC5)nc(N5CCOCC5)n4)cc3s2)cc1,194,"25.9 µM [rising, single point]",
Cc1ccccc1C(=O)NC(=S)Nc1ccccc1[N+](=O)[O-],55.8,,"0.112 µM [falling, full curve, poor fit]"
O=C(NCCCO)c1ccc2nc(-c3ccco3)c(-c3ccco3)nc2c1,,"0.326 µM [rising, full curve, poor fit]",
CC(SCc1ccc(C(=O)O)o1)c1ccc(C(=O)O)o1 (centres undefined),-11.6,,"29.1 µM [falling, single point]"
COc1ccc(C(C)(C)C)cc1NC(=O)C1CC=CCC1C(=O)O (centres undefined),2.74,,"3.26 µM [falling, full curve, poor fit]"
O=C(CCCO)NC1Cc2ccccc2C1,-8.99,,"0.731 µM [falling, full curve, poor fit]"
O=C(CN1CCCCCC1)Nc1ccc(Cl)cc1F,21.1,"0.103 µM [rising, full curve, poor fit]",
COc1cccc(/C=N/NC(=O)c2[nH]c(C)c(C(=O)N/N=C/c3cccc(OC)c3)c2C)c1,91,"29.1 µM [rising, single point]","20.6 µM [rising, single point]"
CCN(CC(=O)NCc1ccc(F)cc1)CC(=O)Nc1ccc(S(=O)(=O)N2CCCC2)cc1,,,"0.731 µM [rising, single point]"
O=C(NCCSCc1c(F)cccc1Cl)c1ccc(CN2CCOCC2)cc1,7.74,,"5.17 µM [rising, single point]"
COP(=O)(c1ccc(N(C)C)cc1)C(O)c1ccccc1 (centres undefined),15.3,,"0.58 µM [falling, single point]"

Compound,cell number change [%],AC50 [1],AC50 [2]
CCC1CCCCN1CC(O)COCc1cccc(OC)c1 (centres undefined),15.4,,
CCC(C)(C)n1nnnc1C(c1cc2cc(OC)ccc2[nH]c1=O)N1CCc2ccccc21 (centres undefined),,"4.11 µM [rising, single point]",
CN(C)/N=C/c1ccc(P(c2ccc(/C=N/N(C)C)o2)c2ccc(/C=N/N(C)C)o2)o1,41.4,"0.651 µM [rising, full curve, poor fit]",
CCC/C(=N\NC(=O)CCC(=O)NCc1ccccc1)c1ccccc1,-20.9,"0.00517 µM [falling, full curve, poor fit]",
C=CCN1C(=O)c2ccc(C(=O)N(CCC)CC(=O)Nc3ccccc3C)cc2C1=O,22,,
COc1ccc(CCNC(=O)c2n[nH]c3ccccc23)cc1,57.3,"2.59 µM [rising, full curve]","2.91 µM [rising, full curve]"
COc1ccc(S(=O)(=O)Nc2ccc(N3CCOCC3)cc2)cc1Br,43.2,"3.26 µM [rising, partial curve]","16.4 µM [rising, partial curve]"
Cc1cccc(Nc2nnc(SCC3CCCCO3)s2)c1 (centres undefined),-14.3,,"0.00461 µM [falling, full curve, poor fit]"
COc1ccccc1CNC(=O)COC(=O)c1cccc(S(=O)(=O)N2CCCC2)c1,24.9,,
Cc1cccnc1NC(=O)c1ccc(Cl)c(S(=O)(=O)N2CCCC2)c1,18.4,,"23.1 µM [rising, single point]"
CC(CNC(=O)CCc1nnc2ccc(N3CCC4(CC3)OCCO4)nn12)c1ccccc1 (centres undefined),-31.7,"2.31 µM [falling, partial curve]",
Cn1nnnc1SCC(=O)Nc1ccc(N2CCOCC2)cc1,-27.5,,"5.8 µM [falling, full curve, poor fit]"
CCOCCn1c(SCc2c(F)cccc2Cl)nc2c1c(=O)[nH]c(=O)n2C,10.8,,"4.11 µM [rising, full curve]"
O=C(CCN1C(=O)c2ccccc2S1(=O)=O)N1CCN(c2ccccc2)CC1,-27.2,,"29.1 µM [falling, single point]"
CCN(CC(=O)Nc1c(F)cccc1F)C(=O)/C=C/c1ccc(C)o1,22.2,,"6.51 µM [rising, partial curve]"
O=S(=O)(c1ccc(Br)cc1)N1CCC2(CC1)OCCO2,12.9,,"7.31 µM [rising, partial curve, poor fit]"
OC(CNC1CCCC1)COc1ccc(-c2ccccc2)cc1 (centres undefined),84.3,,
CCN=c1scc(C)n1/N=C/c1cc(Br)c(O)c(Br)c1,24.3,"0.0517 µM [falling, full curve, poor fit]","0.116 µM [falling, full curve, poor fit]"
CCC1c2ccc(C)n2CCN1C(=O)Nc1ccccc1C(=O)OC (centres undefined),,,"1.16 µM [falling, full curve, poor fit]"
COC(CNC(=O)c1c[nH]c2ccc(S(=O)(=O)N(C)c3ccc(F)cc3)cc2c1=O)OC,-6.34,,
CCN1CCN(C(=S)NCC2CCCO2)CC1 (centres undefined),-31.9,"20.6 µM [falling, single point]","18.4 µM [falling, single point]"

Compound,cell number change [%],AC50 [1],AC50 [2]
C=CCOC(=O)C1=C(C)OC(N)=C(C#N)C1c1ccco1 (centres undefined),29.7,,
Cc1cc(Oc2ccccc2)nc(SCC(=O)Nc2ccc(Cl)cc2Cl)n1,86.4,"23.1 µM [rising, partial curve]","2.91 µM [rising, partial curve]"
O=C(CCc1nnc(-c2ccccc2)o1)NCc1c(F)cccc1F,-34.3,"0.92 µM [falling, full curve]","1.46 µM [falling, partial curve]"
COc1cccc(C(=O)Nc2ccc3c(C)cc(=O)oc3c2)c1,-8.42,"0.0058 µM [rising, full curve, poor fit]","29.1 µM [falling, single point]"
O=C1NC(=O)C(c2ccccc2)(c2ccc(O)cc2)N1 (centres undefined),-18.3,,
O=C(O)C1C2C=CC(C2)C1C(=O)OCC1CCCO1 (centres undefined),37.4,"29.1 µM [rising, single point]",
COc1cccc(NC(=O)Nc2ccc3nc(C)c(C)nc3c2)c1,24.9,,
O=C(C1CCCN(CCCc2ccccc2)C1)N1CCCCCC1 (centres undefined),,"0.517 µM [rising, partial curve, poor fit]",
CN(CC(=O)Nc1ccc(OC(F)(F)F)cc1)C(=O)Cc1c(Cl)cccc1Cl,14.9,,"6.51 µM [falling, single point]"
C=C(C)Cn1c(NCCC)nc2c1c(=O)n(C)c(=O)n2C,-5.39,,
Cc1ccnc(NS(=O)(=O)c2ccc(NC(=O)CCS(=O)(=O)c3ccccc3)cc2)n1,48.8,"9.2 µM [rising, partial curve]",
O=C(NC1CCN(C(=O)NCc2ccccc2)CC1)c1cccc(F)c1,,,"25.9 µM [falling, partial curve]"
Cc1ccnc(NS(=O)(=O)c2ccc(NC(=O)CC(C)c3ccccc3)cc2)n1 (centres undefined),4.76,,"29.1 µM [rising, single point]"
CCOC(=O)CC1CCCCN1C(=O)c1ccc2nc(CCOC)oc2c1 (centres undefined),18.5,,
COc1ccc(C2c3[nH]c4ccccc4c3CCN2CCCn2cccn2)c(C)c1C (centres undefined),23.7,,"0.731 µM [rising, full curve, poor fit]"
CCn1c(C)nc2cc(C(=O)N/N=C/c3cccc(OC)c3O)ccc21,-51.6,"29.1 µM [falling, single point]","29.1 µM [falling, single point]"
CC(NCC(=O)Nc1cc(S(=O)(=O)N2CCOCC2)ccc1N1CCOCC1)c1ccco1 (centres undefined),1.13,,"0.461 µM [falling, single point]"
c1ccc2nc3c(nc2c1)sc1nc2ccccc2n13,5.6,,"0.58 µM [rising, single point]"
Cc1cc(NC(=O)c2cccc(C)c2[N+](=O)[O-])no1,14.7,,"29.1 µM [rising, single point]"

# In the list so far, these have a COOH group.
Compound,cell number change [%],AC50 [1],AC50 [2]
CC(SCc1ccc(C(=O)O)o1)c1ccc(C(=O)O)o1 (centres undefined),-11.6,,"29.1 µM [falling, single point]"
COc1ccc(C(C)(C)C)cc1NC(=O)C1CC=CCC1C(=O)O (centres undefined),2.74,,"3.26 µM [falling, full curve, poor fit]"
O=C(O)C1C2C=CC(C2)C1C(=O)OCC1CCCO1 (centres undefined),37.4,"29.1 µM [rising, single point]",
